# Results of single-concentration screens

By UniProt entry, the sequences of proteins in these tests, tags left out.
UniProt P9WPC5, whole entry: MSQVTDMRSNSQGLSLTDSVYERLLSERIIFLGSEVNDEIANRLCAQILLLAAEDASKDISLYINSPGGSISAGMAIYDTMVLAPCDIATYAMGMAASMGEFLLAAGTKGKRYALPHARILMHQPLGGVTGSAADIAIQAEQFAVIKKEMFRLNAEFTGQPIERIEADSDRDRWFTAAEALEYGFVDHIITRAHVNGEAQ
UniProt P9WPC3, whole entry partner: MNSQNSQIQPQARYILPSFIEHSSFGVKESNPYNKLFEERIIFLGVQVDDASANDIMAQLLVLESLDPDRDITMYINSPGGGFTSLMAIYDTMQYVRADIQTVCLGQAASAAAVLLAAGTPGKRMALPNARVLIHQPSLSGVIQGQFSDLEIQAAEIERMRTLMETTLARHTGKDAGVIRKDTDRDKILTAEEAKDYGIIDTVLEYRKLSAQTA
UniProt I6X8D2, whole entry: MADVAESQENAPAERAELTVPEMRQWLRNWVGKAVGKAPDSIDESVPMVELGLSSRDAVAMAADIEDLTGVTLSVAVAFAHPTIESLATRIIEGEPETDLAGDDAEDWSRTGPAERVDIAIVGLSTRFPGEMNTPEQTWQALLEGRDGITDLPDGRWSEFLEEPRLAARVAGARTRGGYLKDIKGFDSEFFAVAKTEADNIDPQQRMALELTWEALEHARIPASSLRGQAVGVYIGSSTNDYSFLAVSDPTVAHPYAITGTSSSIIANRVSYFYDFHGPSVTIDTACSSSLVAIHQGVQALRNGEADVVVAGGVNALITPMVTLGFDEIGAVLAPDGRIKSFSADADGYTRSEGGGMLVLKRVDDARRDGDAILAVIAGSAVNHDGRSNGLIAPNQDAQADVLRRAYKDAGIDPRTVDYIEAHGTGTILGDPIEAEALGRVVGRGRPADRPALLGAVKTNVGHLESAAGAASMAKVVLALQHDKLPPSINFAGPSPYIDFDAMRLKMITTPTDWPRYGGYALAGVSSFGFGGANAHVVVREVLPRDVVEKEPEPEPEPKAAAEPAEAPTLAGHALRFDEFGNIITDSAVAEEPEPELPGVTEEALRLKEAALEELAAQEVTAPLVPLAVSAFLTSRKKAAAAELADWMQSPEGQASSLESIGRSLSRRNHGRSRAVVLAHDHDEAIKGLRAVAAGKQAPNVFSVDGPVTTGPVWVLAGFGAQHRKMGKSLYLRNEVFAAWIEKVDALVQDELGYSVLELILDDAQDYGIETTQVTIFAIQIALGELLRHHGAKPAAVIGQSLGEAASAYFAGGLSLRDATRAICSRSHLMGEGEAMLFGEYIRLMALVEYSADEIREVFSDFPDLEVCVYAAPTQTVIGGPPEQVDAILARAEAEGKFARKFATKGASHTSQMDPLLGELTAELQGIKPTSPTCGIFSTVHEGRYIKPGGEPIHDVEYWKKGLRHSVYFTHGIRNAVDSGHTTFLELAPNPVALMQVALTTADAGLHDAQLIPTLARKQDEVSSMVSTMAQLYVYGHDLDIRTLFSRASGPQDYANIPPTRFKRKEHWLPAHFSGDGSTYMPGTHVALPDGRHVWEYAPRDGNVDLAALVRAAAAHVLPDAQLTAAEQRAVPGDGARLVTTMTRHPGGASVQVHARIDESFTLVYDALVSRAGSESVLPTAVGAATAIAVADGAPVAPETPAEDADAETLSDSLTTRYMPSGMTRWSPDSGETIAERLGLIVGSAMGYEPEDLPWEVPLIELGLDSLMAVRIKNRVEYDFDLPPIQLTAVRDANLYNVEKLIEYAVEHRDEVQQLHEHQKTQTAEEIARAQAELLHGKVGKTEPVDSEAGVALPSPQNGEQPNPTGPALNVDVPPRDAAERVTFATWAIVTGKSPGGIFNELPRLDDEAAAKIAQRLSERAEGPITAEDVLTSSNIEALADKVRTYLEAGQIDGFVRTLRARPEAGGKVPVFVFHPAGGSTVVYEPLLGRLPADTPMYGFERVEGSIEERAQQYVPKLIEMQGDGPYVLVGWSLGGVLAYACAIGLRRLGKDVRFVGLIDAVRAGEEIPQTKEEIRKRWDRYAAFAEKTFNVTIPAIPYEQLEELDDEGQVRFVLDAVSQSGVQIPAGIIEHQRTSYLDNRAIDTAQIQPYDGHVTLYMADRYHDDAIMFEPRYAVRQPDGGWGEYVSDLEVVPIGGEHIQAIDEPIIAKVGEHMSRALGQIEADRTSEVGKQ

A: 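Protease assay of ClpP1P2, read by the AMC dye that it sets free. Target: ClpP1P2, Mycobacterium tuberculosis (UniProt P9WPC5 and UniProt P9WPC3). Tested at 50 µM. Direction is inferred from only a few compounds that gave an IC50; most scored high, so higher reads as stronger inhibition. Most other retested compounds had strongly negative values. Size under these conditions: about 69,000 compounds, about 10 of them at 50% or above in at least one test.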
B: 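Polyketide synthase Pks13, Mycobacterium tuberculosis (UniProt I6X8D2). Enzyme assay of the thioesterase domain of polyketide synthase 13; the read-out is not stated. Compounds at 30 µM. Higher reads as stronger inhibition (inferred from which compounds were picked for retests). About 67,000 compounds were tested under these conditions; 0.46% (about 300) showed 50% or more at least once.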

Results are given as percent effect.
The record does not define 0% and 100%; most values in the screen are far below 50% and negative numbers occur (in some assays of this library far below -100).
This is an unselected part of the compounds tested.
A dash means the value is not listed here; it may have been measured.

structure	A	B
CN1CC[C@]2(CN(CC3CC3)C[C@H]2c2ccccc2)C1=O	-1.684	-40.75
O=C(NCC(O)C1CC1)Nc1cnn(Cc2ccccc2)c1 (stereo not given)	3.374	-15.78
CCCOc1ccc2c(c1)OCC(C(=O)NC(C)Cn1cccn1)=C2 (stereo not given)	9.257	-12.6
O=C(c1cc(C2CC2)on1)N1CC[C@]2(C[C@H](Oc3cccnc3)CO2)C1	-11.51	-16.11
CS(=O)(=O)N1CCN(CC(O)COc2ccc(F)cc2)CC1 (stereo not given)	-2.739	-12.14
O=C(CCc1ccco1)Nc1ncn(CC(=O)N2CCCCCC2)n1	1.034	-31.32
COc1cccc([C@H]2CN(C(=O)c3cc(C)on3)C[C@@H]2N)c1	-18.73	-22.52
CCS(=O)(=O)N1CCC2(C1)C(=O)N(C)CCN2Cc1ccncc1 (stereo not given)	-6.405	-29.77
CCCc1ccc2oc(C(=O)N3CCN(CCOC)CC3)c(C)c2c1	-8.992	-1.192
CC(Cn1ccnc1)NC(=O)N1CCN(Cc2ccsc2)CC1 (stereo not given)	-43.41	-19.79
Cc1ccccc1C(O)CNS(=O)(=O)Cc1cccc(C#N)c1 (stereo not given)	-6.991	0.06213
c1ccc(N2CCCC(c3nc(-c4cccnn4)no3)C2)nc1 (stereo not given)	-4.062	-34.99
CCc1cnc(N2C[C@@H](NC(=O)c3cscn3)[C@H]3COC[C@H]32)nc1	10.15	14.18
CC(c1cccnc1)N1CCN(CCc2ccccn2)CC1 (stereo not given)	-7.607	-30.52
COc1ccc2nnc(CCCC(=O)NCc3ccccc3F)n2n1	3.113	-0.9785
COc1ccc(-c2nnc([C@H]3CCN(C4CCC4)C3)o2)cc1	11.4	4.709
Cc1cccc(-c2ncc(CNC(C)Cc3ccncc3)cn2)c1 (stereo not given)	1.391	12.83
CC(C)CN1CCC2(CCN(CC3CC3)CC2)C1=O	1.367	-46.09
COc1ccc(S(=O)(=O)C2CCN(C(=O)c3cc(C)cs3)CC2)cc1	-4.471	-2.282
CCc1cc(NCC(N)=O)nc(N2CCCCC2)n1	-5.518	-3.107
CC(C)=CCS(=O)(=O)Cc1nc(C(C)C)no1	-6.503	-4.905
CCOCC(=O)N1CC(=O)Nc2cc(Br)ccc21	-6.665	-13
CCCn1cc(-c2cc(-c3cnc(OC)nc3)c(C#N)c(N)n2)c(C)n1	-18.33	25.67
O=C1NC(c2ccccc2)=N[C@@]12CC[C@@H]1CN(CC3CCOCC3)C[C@@H]12	2.328	-8.299
Cc1nc(NCc2ccc(C)o2)cc(C2CCNCC2)n1	-4.931	2.637
CCC[C@H]1CN(Cc2cncn2C)C[C@@H]1NC(=O)C1(COC)CCC1	-5.568	-49.59
CC(C)(CO)Nc1ccc(-c2nc(-c3ccccc3F)no2)cn1	-15.03	-16.11
Cc1cc(N2CCC(N(C)C(=O)c3cccs3)CC2)nc(C)n1	5.678	-5.175
Cc1cc(N2CCCN(C(=O)Cc3ccc(O)c(Cl)c3)CC2)ccn1	-1.088	-14.05
CCc1cc(N2CCN3CCCCC3C2)n2nccc2n1 (stereo not given)	-12.7	-2.346
COCC1CCN(C(=O)c2cn(Cc3ccccc3C(F)(F)F)nn2)C1 (stereo not given)	-6.589	1.225
CC(=O)NCc1ccc(C(=O)N2CCCC2c2c(C)nn(C)c2C)o1 (stereo not given)	-4.779	-11.5
c1cc(CCN2CCC(c3n[nH]c(C4CC4)n3)CC2)ccn1	1.009	-7.166
CCC(CO)N(Cc1cccnc1)Cc1ccc(-c2ccn[nH]2)s1 (stereo not given)	2.954	-20.82
CCn1cnnc1Cn1cccc(C(F)(F)F)c1=O	5.218	-27.8
COc1cc(OC)cc(N2CCC(NCc3ccsc3)C2=O)c1 (stereo not given)	6.096	-10.86
CCc1ccccc1OC1CN(C(=O)CN(C)Cc2ccncc2)C1	-14.84	-9.272
CN(CC(=O)c1ccc2[nH]c(=O)[nH]c2c1)Cc1ccc2c(c1)OCO2	5.462	-36.61
CN(Cc1ccccc1CN1CCCC1)C(=O)c1c(O)cccc1O	9.898	-29.57
CCOCCC(=O)N1CCCC(c2ncc[nH]2)C1 (stereo not given)	-5.579	-5.132
CSCCCN1CCCC1c1noc(C)n1 (stereo not given)	12.74	-
CN(C)C(=O)c1cn[nH]c1C1CCCN1Cc1c[nH]cn1 (stereo not given)	-46.44	-6.435
CNC(=O)CCS(=O)(=O)Cc1cc(Cl)c2c(c1)OCCCO2	-15.76	-4.614
Cn1nccc1CN1CCOC(c2cccc(Nc3ccccn3)n2)C1 (stereo not given)	-10.08	-4.736
O=C(CC1CC1)N1CCC2(CC1)CC(Oc1ccccc1)CO2 (stereo not given)	-5.544	-19.38
Cc1ccc(C(=O)N2CCN(c3ncnc4nc(N)ccc34)CC2)o1	0.03907	65.57
COCC(=O)Nc1ccc(-c2noc([C@@H]3CCCN3C)n2)cn1	-2.629	-29.27
O=C1CCC2(CCCN(C(=O)c3ccc[nH]3)C2)CN1CCc1c[nH]cn1 (stereo not given)	-3.961	-20.73
CC(Nc1ccc(CC(=O)N(C)C)cc1)C(=O)N(C)CCC#N (stereo not given)	3.476	3.962
CC(C)(C)c1noc(OCC(=O)NC2CCCC2)n1	-4.601	-28.43
COCCN(Cc1ccoc1)C(=O)c1ccc(Cl)s1	-4.105	-14.41
O=S(=O)(NCC(O)c1cccs1)c1ccccc1Cl (stereo not given)	-4.196	-1.803
CC(=O)N1CC2(CCN(C(=O)C3CC3)CC2)c2cc(C)ccc21	-5.436	13.07
c1coc(CNc2nnc(Cc3ccsc3)o2)c1	3.179	-33.32
COC(=O)c1ccc(S(=O)(=O)NC2CNC(=O)C2)cc1 (stereo not given)	-15.93	-8.677
Cc1ccc(CN2Cc3ccnn3CC(C(=O)NCC3CC3)C2)o1 (stereo not given)	-21.47	-10.6
COCCN(C)C[C@@H]1CN(c2nc(C)cc(C)n2)C[C@@H]1CO	-11.98	-1.797
Cc1nc(N2CCC3(CCCN(CC4CC4)C3=O)C2)c2sccc2n1 (stereo not given)	7.037	-3.583
COc1ncnc2c1CCN(c1cc(C(F)(F)F)ncn1)CC2	8.779	3.713
Cc1cc(C)n(CC2CN(Cc3ccc(C(N)=O)cc3)CCO2)n1 (stereo not given)	-17.03	-3.199
CC(O)CN(CC(=O)NC(=O)NCC(F)(F)F)c1ccccc1 (stereo not given)	5.308	-13.69
Cc1cccc(Nc2nccnc2C2CCCN2CC(N)=O)n1 (stereo not given)	-2.637	8.143
Cn1cccc1C(=O)N1CCC(c2nnc(Cn3ccnc3)n2C)CC1	10.02	-1.69
Cc1nn(C)c(N(C)C)c1CNCc1cccc(Cn2cccn2)c1	3.776	8.333
Cc1cc(C)nc(NC2CCN(CCOC(C)C)CC2)n1	-5.612	-7.832
N#Cc1ccc(NCc2cccc(OCC3CCCO3)c2)nc1 (stereo not given)	-13.58	14.81
COc1ccc(NC(=O)CSc2nncn2-n2cccc2)c(OC)c1	-9.571	-6.113

The values are deposited in ChEMBL (CHEMBL3988442, “University of Dundee, Small-Polar-MMV Screening Library” (2021)).